Substitutions are numbered along the chain they refer to. Results are given in words; binding and its absence hold for the method and conditions named. Some results given as binding are weak or reduced against the parent protein; the word gives no strength.
Assays:
[1] = target: monkey C5-mmh (monkey); experiment: SPR (Biacore T200), antibody captured on anti-human Fc; 25 C and 37 C
[2] = target: human C5 (human) (UniProt P01031); experiment: as above

Protein sequences, listed by entry. Tags and fused reporters are not part of them. Lines headed by an entry give the natural chain unless they say otherwise; changes in a name come on top.
UniProt P01031: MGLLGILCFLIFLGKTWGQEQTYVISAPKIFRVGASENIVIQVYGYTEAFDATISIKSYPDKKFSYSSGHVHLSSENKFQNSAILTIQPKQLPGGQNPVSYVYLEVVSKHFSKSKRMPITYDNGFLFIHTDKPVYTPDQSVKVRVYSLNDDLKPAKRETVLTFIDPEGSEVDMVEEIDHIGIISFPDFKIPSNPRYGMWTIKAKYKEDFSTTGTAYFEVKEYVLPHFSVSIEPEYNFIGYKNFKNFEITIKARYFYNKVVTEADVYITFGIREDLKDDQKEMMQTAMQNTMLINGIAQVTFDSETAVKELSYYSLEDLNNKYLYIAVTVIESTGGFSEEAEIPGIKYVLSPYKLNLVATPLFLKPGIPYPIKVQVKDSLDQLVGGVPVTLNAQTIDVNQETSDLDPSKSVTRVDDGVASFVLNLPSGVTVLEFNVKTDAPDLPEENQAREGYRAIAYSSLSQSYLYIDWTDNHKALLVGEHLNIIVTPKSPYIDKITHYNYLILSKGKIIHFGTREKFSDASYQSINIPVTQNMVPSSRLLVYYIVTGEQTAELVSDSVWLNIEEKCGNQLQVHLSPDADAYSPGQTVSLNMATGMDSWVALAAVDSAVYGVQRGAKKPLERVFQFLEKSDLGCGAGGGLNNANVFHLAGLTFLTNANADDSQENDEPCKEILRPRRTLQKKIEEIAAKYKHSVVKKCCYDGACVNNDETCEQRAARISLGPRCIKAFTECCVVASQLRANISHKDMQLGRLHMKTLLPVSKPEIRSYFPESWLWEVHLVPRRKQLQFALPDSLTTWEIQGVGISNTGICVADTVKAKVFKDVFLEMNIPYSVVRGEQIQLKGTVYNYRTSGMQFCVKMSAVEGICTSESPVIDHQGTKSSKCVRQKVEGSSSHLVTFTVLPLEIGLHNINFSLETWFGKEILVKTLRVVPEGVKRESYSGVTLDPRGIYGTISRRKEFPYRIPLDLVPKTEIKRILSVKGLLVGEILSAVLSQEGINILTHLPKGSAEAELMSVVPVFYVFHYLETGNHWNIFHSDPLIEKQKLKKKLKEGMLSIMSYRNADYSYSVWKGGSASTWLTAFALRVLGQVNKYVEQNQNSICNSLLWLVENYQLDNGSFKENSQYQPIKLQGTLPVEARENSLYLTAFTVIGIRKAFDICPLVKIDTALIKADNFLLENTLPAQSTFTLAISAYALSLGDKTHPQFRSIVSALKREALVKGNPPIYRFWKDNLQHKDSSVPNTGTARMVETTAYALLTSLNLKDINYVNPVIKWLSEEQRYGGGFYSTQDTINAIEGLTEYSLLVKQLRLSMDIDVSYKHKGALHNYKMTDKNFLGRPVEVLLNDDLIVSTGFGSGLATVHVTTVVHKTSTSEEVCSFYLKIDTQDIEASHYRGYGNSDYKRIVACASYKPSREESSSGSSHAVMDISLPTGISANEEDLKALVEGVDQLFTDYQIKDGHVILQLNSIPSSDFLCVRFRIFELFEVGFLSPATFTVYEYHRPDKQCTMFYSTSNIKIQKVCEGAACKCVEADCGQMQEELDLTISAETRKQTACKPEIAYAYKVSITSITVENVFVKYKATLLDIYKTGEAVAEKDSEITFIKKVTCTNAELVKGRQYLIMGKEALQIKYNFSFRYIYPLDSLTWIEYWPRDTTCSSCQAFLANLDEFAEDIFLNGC

B1: H4H11683N (antibody, V domains shown)
VH: QVQLVESGGGVVQPGRSLRLSCVASGFTFSSYGIHWVRQAPGKGLEWVAVIWDDGNNINYSDSVKGRFIISRDNSRKTVYLQMNSLRGEDTAVYYCARDAPIAPVPDYWGQGTLVTVSS
VL: DIQMTQSPSTLSASVGDRVTITCRASQSISSWLAWYQQKPGKAPKLLIYKASSLDTGVPSRFSGSGSGTEFTLTISSLQPDDFATYYCQQYNTYSYTFGLGTKLEIK
Q: What does the source list for B1?
A: binding [1]: binds; binding [2]: binds

B2: H4H12166P7 (antibody, human IgG4, V domains shown)
VH: QVQLQESGPGLVKPSETLSLTCTVSGDSVSSSYWTWIRQPPGKGLEWIGYIYYSGSSNYNPSLKSRATISVDTSKNQFSLKLSSVTAADTAVYYCAREHNVDTTMIFDYWGQGTLVTVSS
VL: AIQMTQSPSSLSASVGDRVTITCRASQGIRNDLGWYQQKPGKAPKLLIYAASSLQSGVPSRFAGRGSGTDFTLTISSLQPEDFATYYCLQDFNYPWHFGQGTKVEIK
Q: How did the binding [1] turn out when B2 was run?
A: binds

Q: What about the binding [2] of the same binder?
A: binds

B3: H4H12166P8 (antibody, human IgG4, V domains shown)
VH: B2 VH with H99G, T103H
VL: B2 VL with L89H, H97T
Q: For B3, which binding [1] is on record?
A: binds

Q: What about the binding [2] of the same binder?
A: binds

B4: H4H12166P9 (antibody, human IgG4, V domains shown)
VH: B2 VH with H99G, T103H
VL: B2 VL
Q: B4 was tested. Which binding [1] did it give?
A: binds

Q: And the binding [2]?
A: binds

B5: H4H12166P10 (antibody, human IgG4, V domains shown)
VH: B2 VH with H99G, F107H
VL: B2 VL
Q: Which results are given for B5?
A: binding [1]: binds; binding [2]: binds

B6: H4H12167P (antibody, human IgG4, V domains shown)
VH: QVQLVESGGGLVKPGGSLRLSCAASGFTFSDSYMSWIRQAPGKGLEWISYIGSSGNTFYYADSVKGRFTISRDNANNLLYLQMTSLRAEDTAVYYCAREEGDFWSAVDSWGQGTLVTVSS
VL: DIQLTQSPSFLSASVGDRVTITCWASQGISSYLAWYQQKPGKAPKLLIHTASTLQSGVPSRFSGSGSGTEFTLTISNLQPEDFATYYCQQLNSYPFTFGPGTKVDIK
Q: Which results are given for B6?
A: binding [1]: binds; binding [2]: binds

B7: H4H12168P (antibody, human IgG4, V domains shown)
VH: QVQLVESGGGVVQPGGSLRLSCAASGFTFGGHAMHWVRQAPGKGLEWLAVISSDGSNKQYADSVKGRFTISRDNPKNTLYLQMNSLRVGDTAIYYCAKEVAPRYYYYGLDVWGQGTTVTVSS
VL: DIQMTQSPSSLSASVGDRVTITCRASQDISNFLAWYQQKPGKVPKLLIYTASTLQSGVPSRFSGSGSGTDFTLTVSSLQPEDVATYYCQKYAGALTFGPGTKVDIK
Q: For B7, which binding [2] is on record?
A: binds

B8: H4H12169P (antibody, human IgG4, V domains shown)
VH: EVQLVESGGGLAQPGGSLRLSCAASGFTFRSYAMSWVRQAPGKGPEWVSGIGGNGVTTYYADSVKGRFTISRDNSKNTLFLQMNSLRAEDTAVYYCVQGGLGGYFTGYWGQGTLVTVSS
VL: DIQMTQSPSSLSASVGDRVTITCRASQSISTYLNWYQQNPGKAPKLLIFDASSLQSGVPSRFSGSGSGTDFTLTIRGLQPEDFATYYCQQSYSAPLTFGGGTKVEIK
Q: With B8 as the binder, how does the binding [1] read?
A: binds

Q: And the binding [2]?
A: binds

B9: H4H11686N (antibody, V domains shown)
VH: QVQLVESGGGLVKPGGSLRLSCAASGFTFSDYYMSWIRQAPGKGLEWVSYISSSGNTIKYADSMKGRFTISRDNAKKSLFVEMNSLRAEDTAVYYCARYKSSSDYFDHWGQGTLVTVSS
VL: EIVLTQSPATLSLSPGERATLSCRASQSVRSYLAWYQQKPGQAPRLLIYDASNRATAIPARFSGSGSGTDFTLTISSLEPEDLAVYYCQQSGNWPLTFGGGTKVEIK
Q: B9 was tested. Which binding [1] did it give?
A: binds

Q: And the binding [2]?
A: binds

B10: H4H12171P (antibody, human IgG4, V domains shown)
VH: EVQLVESGGGVVRPGGSLRLSCAASGFTFDEYGMTWVRQVPGKGLEWVSGITWNGGFTDYTDSVKGRFTSSRDNAKNSLYLQMNSLRAEDTALYYCARDGYSSSWGAYDIWGQGTMVTVSS
VL: DIQMTQSPSSLSASVGDRVTITCRASQSISTYLNWYQQKPGKAPKLLIYAASSLQSGVPLRFSGSGSGTDFTLTISSLQPEDFASYFCQQSYSTPYTFGQGTKLEIK
Q: What does the source list for B10?
A: binding [1]: binds; binding [2]: binds

B11: H4H12175P (antibody, human IgG4, V domains shown)
VH: EVQLVESGGGVVQPGGSLRLSCAASGFTFNDYAMHWVRQAPGKGLEWVSLISGDGGNTYYADSVKGRLTISRDNSKNSLYLQMNSLRTEDTALYYCAKDKGWNFGYFDLWGRGTLVTVSS
VL: DIQMTQSPSSLSTSVGDRVTITCRASQNIDTYLNWYQQKPGKAPKLLIYDASSLQSGVPSRFSGSGSGTDFTLTITSLQPEDFATYYCQQNDNILHPLTFGGGTKVEIK
Q: What does the source list for B11?
A: binding [1]: binds; binding [2]: binds

B12: H4H12159P (antibody, human IgG4, V domains shown)
VH: QVQLVESGGGVVQPGRSLRLSCGASGFTFSTYGMHWVRQAPGKGLEWVAVIWDDGNNKYYADSVKGRFTISRDNSKNTLYLQMNSLRAEDTAVYYCARDSEVAPVGDYWGQGTLVTVSS
VL: B1 VL with T22I, S30N, S31R, D55E, T56S, T85A, T93D, L100Q
Q: B12 was tested. Which binding [1] did it give?
A: binds

Q: What about the binding [2] of the same binder?
A: binds

B13: H4H12163P (antibody, human IgG4, V domains shown)
VH: EVQLVESGGDLVQPGGSLRLSCAASGFTFSSYAMNWVRQGPGKGLEWVSAISGRGDSTYYADSVKGRLTISRDNSKNTLYLQMNSLRAEDTAVYYCVKEGEQLVYWYFDLWGRGTLVTVSS
VL: DIQMTQSPSSLSASVGDRVTITCRASQTISNFLHWYQQKPGKAPKLLIYAASSLQSGVPSRFSGSGSGTDFTLTISSLQPEDFSTYFCQQSYTTPLTFGGGTKVEIK
Q: Which results are given for B13?
A: binding [1]: binds; binding [2]: binds

B14: H4H12164P (antibody, human IgG4, V domains shown)
VH: EVQLVESGGGLVRSGGSLRLSCAASGFTFNRYAMTWVRQAPGKGLEWVSAISGSGSSTYYTDSVKGRFTISRDNSKNSVDLQMHSLRVEDTAIYYCARGTTVTTGYGMDVWGQGTTVTVSS
VL: DIQMTQSPSSLSASVGDRVTFTCQASQDITNSLNWYQQKPGRAPKLLIYDASYLKAGVPSRFSGSGSGTDFTFTISSLQPEDIATYYCQQYDDLPYTFGQGTKLEIK
Q: Which binding [1] does the source give for B14 here?
A: binds

Q: What about the binding [2] of the same binder?
A: binds

B15: H4H12161P (antibody, human IgG4, V domains shown)
VH: EVQLVESGGDLVQPGGSLRLSCAASGFTFSDHYMDWVRQAPGKGLDWIGRIRNKANAYNTEYAASVRGRFTISRDDSQNLLYLQMNSLKTDDTAVYYCVRVWNYAYFAMDVWGQGTTVTVSS
VL: DIQMTQSPSSLSASVGDRVTITCRSSQNIGIFLNWYQQKPGEAPNLLISAASSLHSGVPSRFSGSGSGTDFTLTIGSLQPEDFATYYCQQTYNTIFTFGPGTKVDIK
Q: For B15, which binding [2] is on record?
A: binds

Reference: patent US20170355757A1
